Experimental data taken from PubChem BioAssay AID504444 (National Center for Advancing Translational Sciences (NCATS), 2011).
In all, about 360,000 compounds went through this assay and about 7,500 (2.1%) were called active. This list was built around the results that the source calls inconclusive (neither active nor inactive); the mix of calls is not that of the screen. Calls follow the shape of the dose curve; as a rule, active = well fitted inhibition curve with a large enough effect; inconclusive = small, poorly fitted or top-dose-only effect, or effect the other way; inactive = flat fitted curve, though single readings scatter. Where the call is inconclusive, the potency comes from a doubtful curve fit.

Assay: Nrf2 qHTS screen for inhibitors; also: nearly all actives have a fitted effect of over 60% in size
Details: A549 ARE-Fluc reporter, luciferase luminescence, 18-24 h; series mostly up to 46 µM
How it was run: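 A549 ARE_Fluc cells (5000/well, 5% FBS OPTI-MEM) pre-incubated 2 h, then treated with compounds 18-24 h at 37C/5% CO2 in concentration-response. CellTiter-Fluor viability read first; BugLite luciferase luminescence after 15 min at room temperature gives Nrf2 activity.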
Potency is read from the fitted curve at half-maximal effect.

Question: With `O=C(COc1ccc2c3c(c(=O)oc2c1)CCCC3)NCCCN1CCCC1=O` as the compound, how does the Potency read?
Answer: Its Potency is inconclusive: 1.03 µM [falling, partial curve].

Question: Which Potency does the source give for `Cc1ccc(-c2cnc(NC(=O)c3cccc(Br)c3)s2)c(C)c1` here?
Answer: The Potency was inconclusive: 3.66 µM [falling, full curve].

Question: For `Cc1oc(-c2ccccc2Cl)nc1CSCC(=O)N1CCCC1`, which Potency is on record?
Answer: The Potency was inconclusive: 0.651 µM [activator, full curve].

Question: For `COc1ccc(-c2coc3cc(OC(C)=O)c(OC)cc3c2=O)cc1`, which Potency is on record?
Answer: The Potency was “inactive”.

Question: With `O=C(c1cccs1)c1cn(CCOc2ccc(Cl)cc2)c2ccccc12` as the compound, how does the Potency read?
Answer: The Potency was “inactive”.

Question: For `COc1ccc(OC)c(Cc2nnc(CCC(=O)N3CCCCCC3)o2)c1`, which Potency is on record?
Answer: Its Potency is inconclusive: 4.61 µM [activator, partial curve].

Question: Which Potency does the source give for `COc1ccc(-c2nc(Cn3c(SCc4cccc(F)c4)nc4ccncc43)c(C)o2)cc1OC` here?
Answer: The Potency was inconclusive: 32.6 µM [falling, single point].

Question: For `COC(=O)c1sccc1-c1ccc(C(=O)Nc2cccc(Cl)c2)o1`, which Potency is on record?
Answer: The Potency was inconclusive: 5.8 µM [activator, full curve, poor fit].

Question: With `Cc1cccc(NC(=S)N(Cc2cccc(Br)c2)CC2CCC(C(=O)O)CC2)c1` (centres undefined) as the compound, how does the Potency read?
Answer: Its Potency is inconclusive: 4.61 µM [falling, partial curve, poor fit].

Question: For `O=C(Nc1ccc(N2CCOCC2)cc1)c1ccc(COc2ccccc2)cc1`, which Potency is on record?
Answer: Its Potency is inconclusive: 1.64 µM [falling, full curve].

Question: With `CC(=O)c1c(C)[nH]c(C(=O)OCC(=O)NCCCc2ccccc2)c1C` as the compound, how does the Potency read?
Answer: Its Potency is inconclusive: 14.6 µM [falling, partial curve].

Question: With `Cc1cc(=O)oc2cc(OCC(=O)NCc3ccco3)ccc12` as the compound, how does the Potency read?
Answer: The Potency was inconclusive: 13 µM [falling, partial curve, poor fit].

Question: For `CCCCOc1ccc(C(=O)NNC(=S)NC(=O)CC)cc1`, which Potency is on record?
Answer: The Potency was inconclusive: 8.2 µM [falling, partial curve].

Question: With `FC(F)(F)c1nnc(-c2ccccc2)nc1Sc1ccccc1` as the compound, how does the Potency read?
Answer: The Potency was “inactive”.

Question: For `CCCc1nc2ccc(NC(=O)c3ccco3)cc2c(=O)n1Cc1ccccc1Cl`, which Potency is on record?
Answer: Its Potency is inconclusive: 16.4 µM [falling, partial curve, poor fit].

Question: For `CCc1ccc(NS(=O)(=O)c2ccc3oc(=O)c4ncn(CC)c4c3c2)cc1`, which Potency is on record?
Answer: The Potency was “inactive”.

Question: With `Cc1ccc(/C=N/NC(=O)c2csc(C)c2)o1` as the compound, how does the Potency read?
Answer: The Potency was inconclusive: 2.31 µM [falling, single point].

Question: Which Potency does the source give for `COc1ccc(-n2c(Cc3ccccc3)nnc2SCc2nc(-c3cccs3)no2)cc1` here?
Answer: The Potency was inconclusive: 29.1 µM [falling, single point].

Question: For `C/C(=N/Nc1ccc(F)cc1)c1ccc(Cl)s1`, which Potency is on record?
Answer: Its Potency is inconclusive: 10.3 µM [activator, partial curve, poor fit].
